No end group written: not given here.
Tested on: horse erythrocytes
Assay: Haemolysis assay
Format: cell-based
Conditions: HC50 horse erythrocytes divided by minimum MIC
Method: Defibrinated horse erythrocytes (TCS Biosciences Ltd., Buckingham, UK) were used in the haemolysis assay. Peptides, from 1 μM to 512 μM, were tested with a 4% (v/v) erythrocyte suspension and were incubated at 37 °C for 2 h, while 1% Triton X-100 (Sigma-Aldrich, St. Louis, MO, USA) was acted as a positive control and phosphate-buffered saline (PBS) was used as a negative control. The sample supernatants were analysed at 550 nm on an ELISA plate reader (Biolise BioTek EL808, Winooski, VT, USA).

Substance	SI (Selectivity index, HC50 value/the minimum concentration value of inhibiting microbial growth)
FLWIIGKLLSGLL-NH2 [VM-3W]	9.682
FLYIIGKLLSGLL-NH2 [VM-3Y]	105.6
FLKIIGKLLSGLL-NH2 [VM-3K]	11.20
FLPIIGKLLSGLL-NH2 [VM]	11.11
FLGIIGKLLSGLL-NH2 [VM-3G]	9.686

Source: publication PMC9495676, “Evaluation of the Antimicrobial Properties of a Natural Peptide from Vespa mandarinia Venom and Its Synthetic Analogues as a Possible Route to Defeat Drug-Resistant Microbes” (Biology, 2022)
